Measurements from the supplement of paper PMC4604168 (melanoma cell lines).
This is one part of the list. Many values rest on one well or one pass, so single values are uncertain.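 Imaging used 1,536-well plates; nuclei positive for cleaved PARP by antibody were divided by total DNA-stained nuclei to yield the apoptosis fraction. Doses for screening kept most cells viable, and cell lines differ markedly in resting and induced cleaved-PARP levels.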

Columns and labels:
Test in all cases: cleaved PARP positive nuclei fraction relative to DMSO control; melanoma cells; higher = more apoptosis
Settings in all cases: library dose: low library concentration; 72 h
[1] = system: COLO792
[2] = system: COLO800
[3] = system: COLO829
[4] = system: G361
[5] = system: IPC-298
[6] = system: IST-MEL1
[7] = system: LB2518-MEL
[8] = system: LOXIMVI
[9] = system: MEL-HO
[10] = system: MZ2-MEL
[11] = system: MeWo
[12] = system: RPMI7951
[13] = system: RVH-421
[14] = system: SkMel28
[15] = system: SkMel2
[16] = system: SkMel30
[17] = system: SkMel5
[18] = system: UACC257
[19] = system: UACC62

SMILES	cleaved PARP positive nuclei fraction [1] [%]	cleaved PARP positive nuclei fraction [2] [%]	cleaved PARP positive nuclei fraction [3] [%]	cleaved PARP positive nuclei fraction [4] [%]	cleaved PARP positive nuclei fraction [5] [%]	cleaved PARP positive nuclei fraction [6] [%]	cleaved PARP positive nuclei fraction [7] [%]	cleaved PARP positive nuclei fraction [8] [%]	cleaved PARP positive nuclei fraction [9] [%]	cleaved PARP positive nuclei fraction [10] [%]	cleaved PARP positive nuclei fraction [11] [%]	cleaved PARP positive nuclei fraction [12] [%]	cleaved PARP positive nuclei fraction [13] [%]	cleaved PARP positive nuclei fraction [14] [%]	cleaved PARP positive nuclei fraction [15] [%]	cleaved PARP positive nuclei fraction [16] [%]	cleaved PARP positive nuclei fraction [17] [%]	cleaved PARP positive nuclei fraction [18] [%]	cleaved PARP positive nuclei fraction [19] [%]
Cc1ccc(NC(=O)c2cccc(N(C)C)c2)cc1NC(=O)c1ccc(O)cc1 + Cc1cc(N2CCOCC2)cc2[nH]c(-c3c(NC[C@@H](O)c4cccc(Cl)c4)cc[nH]c3=O)nc12 [BMS536924] (first compound 2 µM, partner dose 0.2 µM)	153	181	86.1	75.7	55.9	112	594	54.2	71.1	88.9	95.8	51.3	66.6	64.7	64	85.7	226	136	60.1
O=C(CCCCCCC(=O)Nc1ccccc1)NO [vorinostat] + CC(C)(C)c1cnc(CSc2cnc(NC(=O)C3CCNCC3)s2)o1 [SNS-032] (first compound 0.08 µM, partner dose 0.01 µM)	156	66.2	63.1	129	180	127	53.1	253	64.8	135	71.5	193	20.1	69.3	44.1	62.7	65.7	201	97.8
COc1cc(Nc2ncc(F)c(Nc3ccc4c(n3)NC(=O)C(C)(C)O4)n2)cc(OC)c1OC [Tamatinib] + NCC(=O)Nc1ccc(-n2nc(C(F)(F)F)cc2-c2ccc3c(ccc4ccccc43)c2)cc1 [OSU03012] (first compound 0.4 µM, partner dose 1 µM)	429	329	230	75.3	108	459	149	951	323	92.8	738	103	415	880	194	11100	185	64.2	367
CC(=O)c1c(C)c2cnc(Nc3ccc(N4CCNCC4)cn3)nc2n(C2CCCC2)c1=O [palbociclib] + NC(=O)Nc1cc(-c2cccc(F)c2)sc1C(=O)N[C@H]1CCCNC1 [AZD7762] (first compound 0.04 µM, partner dose 0.02 µM)	102	100	28.2	223	71.3	110	24.5	139	38.3	55.2	203	235	99.3	149	38.9	254	227	170	154
COc1cc(Nc2ncc(F)c(Nc3ccc4c(n3)NC(=O)C(C)(C)O4)n2)cc(OC)c1OC [Tamatinib] + C[C@@H]1CCN(C(=O)CC#N)C[C@@H]1N(C)c1ncnc2[nH]ccc12 [CP690550] (first compound 0.4 µM, partner dose 1 µM)	210	62.7	89.5	131	158	54.9	255	78.2	155	115	121	98.2	92.1	201	133	151	94.8	113	115
COCC[n+]1c2c(n(Cc3cnccn3)c1C)C(=O)c1ccccc1C2=O + C[C@@H]1CCN(C(=O)CC#N)C[C@@H]1N(C)c1ncnc2[nH]ccc12 [CP690550] (first compound 0.0004 µM, partner dose 1 µM)	387	331	149	72.9	49	1280	28.7	2100	143	235	131	126	227	302	134	1940	1150	41.3	138
Clc1ccc(Nc2nnc(Cc3ccncc3)c3ccccc23)cc1 [vatalanib] + NC(=O)Nc1cc(-c2cccc(F)c2)sc1C(=O)N[C@H]1CCCNC1 [AZD7762] (first compound 2 µM, partner dose 0.02 µM)	224	97.6	106	156	45.9	99.7	79.4	62.2	28.3	184	58.9	172	49	213	65.1	58.3	74.8	54.6	31.4
COc1cc(Nc2ncc(F)c(Nc3ccc4c(n3)NC(=O)C(C)(C)O4)n2)cc(OC)c1OC [Tamatinib] + CN(NC(=O)CC(=O)NN(C)C(=S)c1ccccc1)C(=S)c1ccccc1 [STA4783] (first compound 0.4 µM, partner dose 0.006 µM)	340	69	177	122	59.5	61.5	1640	136	146	198	143	55.8	95.1	71.1	55.7	127	94.3	119	186
Cc1nc(Nc2ncc(C(=O)Nc3c(C)cccc3Cl)s2)cc(N2CCN(CCO)CC2)n1 [dasatanib] + C=CCn1c(=O)c2cnc(Nc3ccc(N4CCN(C)CC4)cc3)nc2n1-c1cccc(C(C)(C)O)n1 [MK1775] (first compound 0.004 µM, partner dose 0.02 µM)	233	268	226	202	90	34.5	54.3	112	147	180	119	147	70.3	180	84.1	77.7	167	156	80
NC(=O)Nc1cc(-c2cccc(F)c2)sc1C(=O)N[C@H]1CCCNC1 + Cn1cncc1[C@@](N)(c1ccc(Cl)cc1)c1ccc2c(c1)c(-c1cccc(Cl)c1)cc(=O)n2C [tipifarnib] (first compound 0.02 µM, partner dose 0.01 µM)	102	98.8	125	123	84.3	122	95.2	22.7	72.1	42.3	197	80.7	59.9	51.8	89.2	74.8	165	79.9	55.1
Nc1cccc2c1CN(C1CCC(=O)NC1=O)C2=O (stereo not drawn) [lenalidomide] + COc1cc(Nc2ncc(F)c(Nc3ccc4c(n3)NC(=O)C(C)(C)O4)n2)cc(OC)c1OC [Tamatinib] (first compound 1 µM, partner dose 0.4 µM)	285	129	163	180	124	55.1	111	95.3	109	169	84.4	39.5	24.3	269	162	117	15.7	69.4	120
Cn1nnc2c(C(N)=O)ncn2c1=O [temozolomide] + CN(NC(=O)CC(=O)NN(C)C(=S)c1ccccc1)C(=S)c1ccccc1 [STA4783] (first compound 2 µM, partner dose 0.006 µM)	334	162	132	4960	116	65.3	271	72	72.2	79.1	144	56	81.8	157	34.9	74.4	151	137	245
CC(=O)c1c(C)c2cnc(Nc3ccc(N4CCNCC4)cn3)nc2n(C2CCCC2)c1=O [palbociclib] + Cc1cc(N2CCOCC2)cc2[nH]c(-c3c(NC[C@@H](O)c4cccc(Cl)c4)cc[nH]c3=O)nc12 [BMS536924] (first compound 0.04 µM, partner dose 0.2 µM)	137	141	74.6	193	62.7	120	199	34.6	139	99.8	43.4	255	275	98.8	59.1	128	51.6	179	165
Clc1ccc(Nc2nnc(Cc3ccncc3)c3ccccc23)cc1 [vatalanib] + CC(C)(C)c1cnc(CSc2cnc(NC(=O)C3CCNCC3)s2)o1 [SNS-032] (first compound 2 µM, partner dose 0.01 µM)	118	55.9	133	136	101	223	49.1	242	151	165	111	70	107	97.4	121	64.9	188	85.5	58
Cc1ccc(NC(=O)c2cccc(N(C)C)c2)cc1NC(=O)c1ccc(O)cc1 + NC(=O)Nc1cc(-c2cccc(F)c2)sc1C(=O)N[C@H]1CCCNC1 [AZD7762] (first compound 2 µM, partner dose 0.02 µM)	87.8	106	33.6	76.6	102	88.3	90.6	19.1	128	159	63.2	89.3	51.1	83.6	78.2	31.5	36.1	21.3	102
NC(=O)Nc1cc(-c2cccc(F)c2)sc1C(=O)N[C@H]1CCCNC1 + OCCn1cc(-c2cnc3nnn(Cc4ccc5ncccc5c4)c3n2)cn1 [PF04217903] (first compound 0.02 µM, partner dose 1 µM)	49.9	72.9	79	85.9	40.1	90.8	42.8	179	150	72.7	17.3	74.6	54.6	21.3	104	138	40.4	31.3	64.2
Nc1cccc2c1CN(C1CCC(=O)NC1=O)C2=O (stereo not drawn) [lenalidomide] + CO[C@@H]1[C@H](N(C)C(=O)c2ccccc2)C[C@H]2O[C@]1(C)n1c3ccccc3c3c4c(c5c6ccccc6n2c5c31)C(=O)NC4 [Midostaurin] (first compound 1 µM, partner dose 0.08 µM)	112	45	69.7	36.6	96.3	118	99.5	32.7	295	163	56.8	240	94.1	120	107	183	38	90	33.9

Record cards (already shown). Values in the order: cleaved PARP positive nuclei fraction [1] [%] | cleaved PARP positive nuclei fraction [2] [%] | cleaved PARP positive nuclei fraction [3] [%] | cleaved PARP positive nuclei fraction [4] [%] | cleaved PARP positive nuclei fraction [5] [%] | cleaved PARP positive nuclei fraction [6] [%] | cleaved PARP positive nuclei fraction [7] [%] | cleaved PARP positive nuclei fraction [8] [%] | cleaved PARP positive nuclei fraction [9] [%] | cleaved PARP positive nuclei fraction [10] [%] | cleaved PARP positive nuclei fraction [11] [%] | cleaved PARP positive nuclei fraction [12] [%] | cleaved PARP positive nuclei fraction [13] [%] | cleaved PARP positive nuclei fraction [14] [%] | cleaved PARP positive nuclei fraction [15] [%] | cleaved PARP positive nuclei fraction [16] [%] | cleaved PARP positive nuclei fraction [17] [%] | cleaved PARP positive nuclei fraction [18] [%] | cleaved PARP positive nuclei fraction [19] [%]
CC(=O)c1c(C)c2cnc(Nc3ccc(N4CCNCC4)cn3)nc2n(C2CCCC2)c1=O [palbociclib] + Cc1cc(N2CCOCC2)cc2[nH]c(-c3c(NC[C@@H](O)c4cccc(Cl)c4)cc[nH]c3=O)nc12 [BMS536924] (first compound 0.04 µM, partner dose 0.2 µM) is listed with 137 | 141 | 74.6 | 193 | 62.7 | 120 | 199 | 34.6 | 139 | 99.8 | 43.4 | 255 | 275 | 98.8 | 59.1 | 128 | 51.6 | 179 | 165
Cc1nc(Nc2ncc(C(=O)Nc3c(C)cccc3Cl)s2)cc(N2CCN(CCO)CC2)n1 [dasatanib] + C=CCn1c(=O)c2cnc(Nc3ccc(N4CCN(C)CC4)cc3)nc2n1-c1cccc(C(C)(C)O)n1 [MK1775] (first compound 0.004 µM, partner dose 0.02 µM) is listed with 233 | 268 | 226 | 202 | 90 | 34.5 | 54.3 | 112 | 147 | 180 | 119 | 147 | 70.3 | 180 | 84.1 | 77.7 | 167 | 156 | 80
